In publication doi:10.1101/2021.05.10.443506:
No constants are given. Whether binding was seen depends on the method and setting. In cells and extracts the contact can be indirect. Some entries that bind do so weakly or less than the wild type.

Sequences of proteins named here, by UniProt entry; tags and fusion partners are left off.
UniProt P12270: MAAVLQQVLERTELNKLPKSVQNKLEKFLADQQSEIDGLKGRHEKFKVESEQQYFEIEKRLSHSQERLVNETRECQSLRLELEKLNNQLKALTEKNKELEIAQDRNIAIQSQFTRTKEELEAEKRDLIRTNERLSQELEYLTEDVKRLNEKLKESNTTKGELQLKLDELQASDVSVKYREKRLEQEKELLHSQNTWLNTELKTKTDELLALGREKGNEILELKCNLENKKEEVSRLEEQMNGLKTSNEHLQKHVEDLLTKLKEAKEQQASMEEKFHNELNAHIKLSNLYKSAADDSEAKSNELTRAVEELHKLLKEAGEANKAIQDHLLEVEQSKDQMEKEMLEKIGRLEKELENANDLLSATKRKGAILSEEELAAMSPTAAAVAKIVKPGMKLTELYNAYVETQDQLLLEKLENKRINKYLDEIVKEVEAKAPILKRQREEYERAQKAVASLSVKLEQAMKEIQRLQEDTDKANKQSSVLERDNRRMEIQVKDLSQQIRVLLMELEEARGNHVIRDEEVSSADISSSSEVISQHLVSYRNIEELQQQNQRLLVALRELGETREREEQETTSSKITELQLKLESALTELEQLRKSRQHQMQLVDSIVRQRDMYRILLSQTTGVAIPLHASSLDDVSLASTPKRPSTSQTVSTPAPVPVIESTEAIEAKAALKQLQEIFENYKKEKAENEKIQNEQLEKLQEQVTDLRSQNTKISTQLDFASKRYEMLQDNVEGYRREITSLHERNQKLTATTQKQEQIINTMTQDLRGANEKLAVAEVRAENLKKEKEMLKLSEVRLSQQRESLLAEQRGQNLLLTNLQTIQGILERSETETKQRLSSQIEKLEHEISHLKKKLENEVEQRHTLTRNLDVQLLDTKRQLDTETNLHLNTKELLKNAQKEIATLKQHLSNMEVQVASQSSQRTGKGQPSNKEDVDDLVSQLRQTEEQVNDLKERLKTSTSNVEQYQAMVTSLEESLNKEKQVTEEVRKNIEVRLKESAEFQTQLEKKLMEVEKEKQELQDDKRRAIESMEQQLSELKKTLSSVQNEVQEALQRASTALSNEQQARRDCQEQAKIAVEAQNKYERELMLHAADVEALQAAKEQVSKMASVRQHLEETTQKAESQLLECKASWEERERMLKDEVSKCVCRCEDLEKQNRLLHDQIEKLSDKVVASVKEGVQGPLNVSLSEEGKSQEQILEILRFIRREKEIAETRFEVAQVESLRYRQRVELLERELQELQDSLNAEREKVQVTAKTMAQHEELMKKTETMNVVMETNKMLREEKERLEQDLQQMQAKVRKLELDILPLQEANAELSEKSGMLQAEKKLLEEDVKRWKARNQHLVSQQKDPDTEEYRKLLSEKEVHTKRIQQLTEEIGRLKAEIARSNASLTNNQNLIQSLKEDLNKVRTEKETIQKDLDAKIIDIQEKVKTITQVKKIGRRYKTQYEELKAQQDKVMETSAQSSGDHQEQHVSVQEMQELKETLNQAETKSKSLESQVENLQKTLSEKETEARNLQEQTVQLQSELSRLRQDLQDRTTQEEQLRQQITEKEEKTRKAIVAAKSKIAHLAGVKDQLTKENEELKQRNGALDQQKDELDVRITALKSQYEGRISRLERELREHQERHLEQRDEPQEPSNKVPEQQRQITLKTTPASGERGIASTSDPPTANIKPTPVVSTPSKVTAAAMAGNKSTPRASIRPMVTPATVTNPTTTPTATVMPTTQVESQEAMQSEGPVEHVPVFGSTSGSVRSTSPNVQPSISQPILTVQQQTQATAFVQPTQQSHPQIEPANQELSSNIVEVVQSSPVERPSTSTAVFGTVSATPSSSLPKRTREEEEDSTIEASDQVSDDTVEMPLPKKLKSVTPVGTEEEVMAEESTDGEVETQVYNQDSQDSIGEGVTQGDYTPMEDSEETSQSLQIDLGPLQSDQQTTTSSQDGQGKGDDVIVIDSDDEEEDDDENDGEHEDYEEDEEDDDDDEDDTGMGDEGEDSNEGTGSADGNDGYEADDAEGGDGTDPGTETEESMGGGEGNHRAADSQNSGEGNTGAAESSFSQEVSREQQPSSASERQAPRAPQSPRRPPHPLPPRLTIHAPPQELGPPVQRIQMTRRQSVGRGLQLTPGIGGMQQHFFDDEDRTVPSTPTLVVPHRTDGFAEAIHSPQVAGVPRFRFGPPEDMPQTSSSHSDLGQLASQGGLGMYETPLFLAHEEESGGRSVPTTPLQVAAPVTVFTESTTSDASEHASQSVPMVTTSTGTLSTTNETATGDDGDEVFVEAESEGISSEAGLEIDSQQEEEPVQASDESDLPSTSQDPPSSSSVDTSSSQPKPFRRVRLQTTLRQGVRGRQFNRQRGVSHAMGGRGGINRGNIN

Target: nucleoporin TPR (human (endogenous in U2OS)) (UniProt P12270)
Experiment: proximity ligation

binding: binds
B1: CTCF (protein, UniProt P49711 1-727)
chain: MEGDAVEAIVEESETFIKGKERKTYQRRREGGQEEDACHLPQNQTDGGEVVQDVNSSVQMVMMEQLDPTLLQMKTEVMEGTVAPEAEAAVDDTQIITLQVVNMEEQPINIGELQLVQVPVPVTVPVATTSVEELQGAYENEVSKEGLAESEPMICHTLPLPEGFQVVKVGANGEVETLEQGELPPQEDPSWQKDPDYQPPAKKTKKTKKSKLRYTEEGKDVDVSVYDFEEEQQEGLLSEVNAEKVVGNMKPPKPTKIKKKGVKKTFQCELCSYTCPRRSNLDRHMKSHTDERPHKCHLCGRAFRTVTLLRNHLNTHTGTRPHKCPDCDMAFVTSGELVRHRRYKHTHEKPFKCSMCDYASVEVSKLKRHIRSHTGERPFQCSLCSYASRDTYKLKRHMRTHSGEKPYECYICHARFTQSGTMKMHILQKHTENVAKFHCPHCDTVIARKSDLGVHLRKQHSYIEQGKKCRYCDAVFHERYALIQHQKSHKNEKRFKCDQCDYACRQERHMIMHKRTHTGEKPYACSHCDKTFRQKQLLDMHFKRYHDPNFVPAAFVCSKCGKTFTRRNTMARHADNCAGPDGVEGENGGETKKSKRGRKRKMRSKKEDSSDSENAEPDLDDNEDEEEPAVEIEPEPEPQPVTPAPPPAKKRRGRPPGRTNQPKQNQPTAIIQVEDQNTGAIENIIVEVKKEPDAEPAEGEEEEAQPAATDAPNGDLTPEMILSMMDR
